In article PMC7862700 one finds binding signal data, which are given here for 35 sequences.

The list shows a part of the results, in another mix than the full data. At the low end of the ranking, values are background and their order means little.

In the test the target is SPI1 (UniProt P17947). Nature of the test: DAPPL (digital affinity profiling via proximity ligation, sequencing). Particulars: 10 mM Tris-HCl pH 7.5, 50 mM NaCl, 1 mM DTT, 4% glycerol, room temperature, 30 min; GST-TFs on glutathione beads, 16-mer random dsDNA library, 0.1% …; high values mean tight binding; double strand, one strand shown; scale: fold enrichment (6-mer frequency, TF over GST control).
In turn, AGCTTT showed a binding signal of 1.16.

The sequence TATCAG gave a binding signal of 0.982.

For ATTATG, the binding signal is 1.25.

Take ATGAGC: the binding signal is 1.13.

On to AATCAA, for which the binding signal worked out at 1.15.

The sequence CTCAAA registered a binding signal of 1.29.

As for TACATT, the binding signal was found to be 1.14.

TTACTG returned a binding signal of 1.05.

The sequence ACTCTC gave a binding signal of 1.49.

Turning to ATCCCC, the binding signal was found to be 1.39.

CGTCTC showed a binding signal of 1.36.

GTCCTA displayed a binding signal of 1.16.

Take TGCACT: the binding signal came to 1.68.

Sequence GAACCC gave a binding signal of 1.16.

CGACGA had a binding signal of 0.975.

Take TATGGA: the binding signal turned out to be 1.07.

ATTAGC registered a binding signal of 0.989.

Sequence CTTACG registered a binding signal of 1.09.

As for TGCTCA, the binding signal came out at 1.27.

CCTAGA came in with a binding signal of 0.976.

TACGTT: the binding signal turned out to be 1.25.

CTGCTA gave a binding signal of 1.53.

Take TTAGTA: the binding signal was 0.999.

Consider AAGCAC, for which the binding signal came to 1.18.

CCTGCA gave a binding signal of 1.17.

In turn, GCTCTG returned a binding signal of 1.11.

Turning to TACTAG, the binding signal turned out to be 1.

With CGTATG, the binding signal is 1.07.

Take CGAAAC: the binding signal amounted to 1.21.

Sequence TTGGGT gave a binding signal of 1.02.

Sequence CGTTCA returned a binding signal of 1.16.

The sequence AAGAAT returned a binding signal of 1.18.

Sequence TACGAT showed a binding signal of 1.09.

Consider TTGCGT, for which the binding signal is 1.11.

CGACTC had a binding signal of 1.35.
